{"source": "PubChem BioAssay AID1159599 (NIAID, 2016)", "purpose": "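Which TLR pathway genes are needed for LPS-driven Tnf promoter activity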", "cells": "mouse RAW264.7 G9 macrophage reporter clone cells", "knock-down reagent": "single siRNA against mouse genes", "duration": "48 to 72 h after siRNA transfection, LPS for the last 16 h", "challenge": "LPS (Salmonella minnesota R595), 16 h before fixation; dose not stated", "read-out": "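High-content imaging of red fluorescence driven by the Tnf promoter after LPS, background subtracted, scored per siRNA as a plate-wise median/MAD robust z-score, replicate mean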", "scale": "Tnf reporter z-score: higher = stronger Tnf promoter reporter signal after LPS", "rule for the call": "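Active when the replicate-mean Tnf reporter z-score is about -1.5 or lower, or about 1.5 or higher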", "calls": "active = strong change either way; inactive = little change", "note": "Here is a random part of 756 reagents. Over the whole deposit, 130 (17%) are marked active. 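Calls are two-sided: actives include siRNAs that raised the Tnf reporter as well as ones that lowered it.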 A number with no mark means an inactive call. Reagents against one gene are numbered here. Reagent sequences are not shown. The record does not give: the amount of reagent."}
{"Target gene": "Tollip (GeneID 54473)", "siRNA no.": 1, "Tnf reporter z-score, replicate mean": 0.865}
{"Target gene": "Tollip (GeneID 54473)", "siRNA no.": 2, "Tnf reporter z-score, replicate mean": "-1.58 (active)"}
{"Target gene": "Tollip (GeneID 54473)", "siRNA no.": 3, "Tnf reporter z-score, replicate mean": -1.12}
{"Target gene": "Tollip (GeneID 54473)", "siRNA no.": 4, "Tnf reporter z-score, replicate mean": -0.252}
{"Target gene": "Tollip (GeneID 54473)", "siRNA no.": 5, "Tnf reporter z-score, replicate mean": 1.42}
{"Target gene": "Tollip (GeneID 54473)", "siRNA no.": 6, "Tnf reporter z-score, replicate mean": -0.861}
{"Target gene": "Mapk8 (GeneID 26419)", "siRNA no.": 1, "Tnf reporter z-score, replicate mean": "1.95 (active)"}
{"Target gene": "Mapk8 (GeneID 26419)", "siRNA no.": 2, "Tnf reporter z-score, replicate mean": 0.366}
{"Target gene": "Mapk8 (GeneID 26419)", "siRNA no.": 3, "Tnf reporter z-score, replicate mean": -1.26}
{"Target gene": "Mapk8 (GeneID 26419)", "siRNA no.": 4, "Tnf reporter z-score, replicate mean": 0.197}
{"Target gene": "Mapk8 (GeneID 26419)", "siRNA no.": 5, "Tnf reporter z-score, replicate mean": -0.352}
{"Target gene": "Mapk8 (GeneID 26419)", "siRNA no.": 6, "Tnf reporter z-score, replicate mean": -0.956}

Hits (from the list above):
{"Target gene": "Tollip (GeneID 54473)", "siRNA no.": 2, "Tnf reporter z-score, replicate mean": "-1.58 (active)"}
{"Target gene": "Mapk8 (GeneID 26419)", "siRNA no.": 1, "Tnf reporter z-score, replicate mean": "1.95 (active)"}

Additional entries:
{"Target gene": "Lbp (GeneID 16803)", "siRNA no.": 1, "Tnf reporter z-score, replicate mean": -0.0731}
{"Target gene": "Lbp (GeneID 16803)", "siRNA no.": 2, "Tnf reporter z-score, replicate mean": 0.116}
{"Target gene": "Lbp (GeneID 16803)", "siRNA no.": 3, "Tnf reporter z-score, replicate mean": -0.578}
{"Target gene": "Lbp (GeneID 16803)", "siRNA no.": 4, "Tnf reporter z-score, replicate mean": -0.55}
{"Target gene": "Lbp (GeneID 16803)", "siRNA no.": 5, "Tnf reporter z-score, replicate mean": 0.774}
{"Target gene": "Lbp (GeneID 16803)", "siRNA no.": 6, "Tnf reporter z-score, replicate mean": -0.433}
{"Target gene": "Tlr1 (GeneID 21897)", "siRNA no.": 1, "Tnf reporter z-score, replicate mean": 0.608}
{"Target gene": "Tlr1 (GeneID 21897)", "siRNA no.": 2, "Tnf reporter z-score, replicate mean": 0.164}
{"Target gene": "Tlr1 (GeneID 21897)", "siRNA no.": 3, "Tnf reporter z-score, replicate mean": -0.206}
{"Target gene": "Tlr1 (GeneID 21897)", "siRNA no.": 4, "Tnf reporter z-score, replicate mean": 0.565}
{"Target gene": "Tlr1 (GeneID 21897)", "siRNA no.": 5, "Tnf reporter z-score, replicate mean": -0.187}
{"Target gene": "Tlr1 (GeneID 21897)", "siRNA no.": 6, "Tnf reporter z-score, replicate mean": -0.851}
